assay: Optical property of the optical film (retardation, Re(450)/Re(550)); conditions: Re(450)/Re(550) of the optical film, RET-100

| SMILES | Optical property |
| --- | --- |
| C=C(C)C(=O)OCCCOc1ccc(/C=C/C(=O)Oc2ccc(OC(=O)/C=C/c3ccc(OCCCOC(=O)C(=C)C)cc3)c(/C=N/Nc3nc4ccccc4s3)c2)cc1 [1-c-48] | A (Re(450)/Re(550)≤0.85) |
| C=CC(=O)OCCCOc1ccc(CCC(=O)Oc2ccc(OC(=O)CCc3ccc(OCCCOC(=O)C=C)cc3)c(/C=N/Nc3nc4ccccc4s3)c2)cc1 [1-c-49] | A (Re(450)/Re(550)≤0.85) |
| C=CC(=O)OCCCCOc1ccc(CCC(=O)Oc2ccc(OC(=O)CCc3ccc(OCCCCOC(=O)C=C)cc3)c(/C=N/Nc3nc4ccccc4s3)c2)cc1 [1-c-50] | A (Re(450)/Re(550)≤0.85) |
| C=CC(=O)OCCCCCCOc1ccc(CCC(=O)Oc2ccc(OC(=O)CCc3ccc(OCCCCCCOC(=O)C=C)cc3)c(/C=N/Nc3nc4ccccc4s3)c2)cc1 [1-c-51] | A (Re(450)/Re(550)≤0.85) |
| C=CC(=O)OCCCOc1ccc(CCC(=O)Oc2ccc(OC(=O)CCc3ccc(OCCCOC(=O)C=C)c(OC)c3)c(/C=N/Nc3nc4ccccc4s3)c2)cc1OC [1-c-52] | A (Re(450)/Re(550)≤0.85) |
| C=CC(=O)OCCCCOc1ccc(C#Cc2ccc(C#Cc3ccc(OCCCCOC(=O)C=C)cc3)c(/C=N/Nc3nc4ccccc4s3)c2)cc1 [1-c-66] | A (Re(450)/Re(550)≤0.85) |
| C=CC(=O)OCCCOc1ccc(C#Cc2ccc(C#Cc3ccc(OCCCOC(=O)C=C)cc3)c(/C=N/Nc3nc4ccccc4s3)c2)cc1 [1-c-67] | A (Re(450)/Re(550)≤0.85) |
| C=CC(=O)OCCCCCCOc1ccc(C#Cc2ccc(C#Cc3ccc(OCCCCCCOC(=O)C=C)cc3)c(/C=N/Nc3nc4ccccc4s3)c2)cc1 [1-c-68] | A (Re(450)/Re(550)≤0.85) |
| C=CC(=O)OCCCCCCOc1ccc(OCCOc2ccc(OCCOc3ccc(OCCCCCCOC(=O)C=C)cc3)c(/C=N/Nc3nc4ccccc4s3)c2)cc1 [1-c-80] | A (Re(450)/Re(550)≤0.85) |
| C=CC(=O)Oc1ccc(C(=O)OCCc2ccc(OC(=O)c3ccc(OC(=O)C=C)cc3)c(/C=N/Nc3nc4ccccc4s3)c2)cc1 [1-cg-36] | A (Re(450)/Re(550)≤0.85) |
| C=CC(=O)Oc1ccc(C(=O)OCCc2ccc(CCOC(=O)c3ccc(OC(=O)C=C)cc3)c(/C=N/Nc3nc4ccccc4s3)c2)cc1 [1-cg-37] | A (Re(450)/Re(550)≤0.85) |
| C=CC(=O)OCCCCCCOc1ccc(C(=O)Oc2ccc(C(=O)OCCc3ccc(OC(=O)c4ccc(OC(=O)c5ccc(OCCCCCCOC(=O)C=C)cc5)cc4)c(/C=N/Nc4nc5ccccc5s4)c3)cc2)cc1 [1-ch-79] | A (Re(450)/Re(550)≤0.85) |
| C=CC(=O)OCCCCOC(=O)/C=C/c1ccc(CCC(=O)Oc2ccc(OC(=O)CCc3ccc(/C=C/C(=O)OCCCCOC(=O)C=C)cc3)c(/C=N/Nc3nc4ccccc4s3)c2)cc1 [1-cj-59] | A (Re(450)/Re(550)≤0.85) |
| C=CC(=O)OCCCCCCOC(=O)/C=C/c1ccc(CCC(=O)Oc2ccc(OC(=O)CCc3ccc(/C=C/C(=O)OCCCCCCOC(=O)C=C)cc3)c(/C=N/Nc3nc4ccccc4s3)c2)cc1 [1-cj-60] | A (Re(450)/Re(550)≤0.85) |
| C=CC(=O)OCCCOC(=O)/C=C/c1ccc(CCC(=O)Oc2ccc(OC(=O)CCc3ccc(/C=C/C(=O)OCCCOC(=O)C=C)cc3)c(/C=N/Nc3nc4ccccc4s3)c2)cc1 [1-cj-63] | A (Re(450)/Re(550)≤0.85) |
| C=CC(=O)OCCCCCCOc1ccc(OC(=O)C2CCC(COc3ccc(OCC4CCC(C(=O)Oc5ccc(OCCCCCCOC(=O)C=C)cc5)CC4)c(/C=N/Nc4nc5ccccc5s4)c3)CC2)cc1 (centres unmarked) [1-cm-88] | A (Re(450)/Re(550)≤0.85) |
| C=CC(=O)OCCCOc1ccc(OC(=O)C2CCC(COc3ccc(OCC4CCC(C(=O)Oc5ccc(OCCCOC(=O)C=C)cc5)CC4)c(/C=N/Nc4nc5ccccc5s4)c3)CC2)cc1 (centres unmarked) [1-cm-89] | A (Re(450)/Re(550)≤0.85) |
| C=CC(=O)OCCOCCOCCOc1ccc(OC(=O)C2CCC(COc3ccc(OCC4CCC(C(=O)Oc5ccc(OCCOCCOCCOC(=O)C=C)cc5)CC4)c(/C=N/Nc4nc5ccccc5s4)c3)CC2)cc1 (centres unmarked) [1-cm-105] | A (Re(450)/Re(550)≤0.85) |
| C=CC(=O)OCCCCCCOc1ccc(OC(=O)C2CCC(C(=O)OCCc3ccc(OC(=O)C4CCC(C(=O)Oc5ccc(OCCCCCCOC(=O)C=C)cc5)CC4)c(/C=N/N(CCCCCC)c4nc5ccccc5s4)c3)CC2)cc1 (centres unmarked) [1-cmn-82] | A (Re(450)/Re(550)≤0.85) |
| C=CC(=O)OCCOCCOCCOc1ccc(OC(=O)C2CCC(COc3ccc(OCC4CCC(C(=O)Oc5ccc(OCCOCCOCCOC(=O)C=C)cc5)CC4)c(/C=N/N(CCCCCC)c4nc5ccccc5s4)c3)CC2)cc1 (centres unmarked) [1-cmn-90] | A (Re(450)/Re(550)≤0.85) |
| C=CC(=O)OCCCCCCOc1ccc(OC(=O)C2CCC(COc3ccc(OCC4CCC(C(=O)Oc5ccc(OCCCCCCOC(=O)C=C)cc5)CC4)c(/C=N/N(CCOCCOC)c4nc5ccccc5s4)c3)CC2)cc1 (centres unmarked) [1-cmn-91] | A (Re(450)/Re(550)≤0.85) |
| C=CC(=O)OCCCOc1ccc(OC(=O)C2CCC(COc3ccc(OCC4CCC(C(=O)Oc5ccc(OCCCOC(=O)C=C)cc5)CC4)c(/C=N/N(CCOCCOC)c4nc5ccccc5s4)c3)CC2)cc1 (centres unmarked) [1-cmn-92] | A (Re(450)/Re(550)≤0.85) |

| SMILES | Optical property |
| --- | --- |
| C=CC(=O)OCCCCCCOc1ccc(OC(=O)C2CCC(COc3ccc(OCC4CCC(C(=O)Oc5ccc(OCCCCCCOC(=O)C=C)cc5)CC4)c(/C=N/N(CCOC(=O)C=C)c4nc5ccccc5s4)c3)CC2)cc1 (centres unmarked) [1-cmn-93] | A (Re(450)/Re(550)≤0.85) |
| C=CC(=O)OCCCCCCOc1ccc(OC(=O)C2CCC(COc3ccc(OCC4CCC(C(=O)Oc5ccc(OCCCCCCOC(=O)C=C)cc5)CC4)c(/C=N/N(CCOCCOCCOC(=O)C=C)c4nc5ccccc5s4)c3)CC2)cc1 (centres unmarked) [1-cmn-94] | A (Re(450)/Re(550)≤0.85) |
| C=CC(=O)OCCCOc1ccc(OC(=O)C2CCC(COc3ccc(OCC4CCC(C(=O)Oc5ccc(OCCCOC(=O)C=C)cc5)CC4)c(/C=N/N(C(=O)C=C)c4nc5ccccc5s4)c3)CC2)cc1 (centres unmarked) [1-cmn-107] | A (Re(450)/Re(550)≤0.85) |
| C=CC(=O)OCCCCCCOc1ccc(OC(=O)C2CCC(COc3ccc(OCC4CCC(C(=O)Oc5ccc(OCCCCCCOC(=O)C=C)cc5)CC4)c(/C=N/N(C(=O)C=C)c4nc5ccccc5s4)c3)CC2)cc1 (centres unmarked) [1-cmn-108] | A (Re(450)/Re(550)≤0.85) |
| C=CC(=O)OCCCCCCOc1ccc(C(=O)Oc2ccc(OC(=O)c3ccc(OCCCCCCOC(=O)C=C)cc3)c(/C=N/N(CCCCCC)c3nc4ccccc4s3)c2)cc1 [1-cn-83] | A (Re(450)/Re(550)≤0.85) |
| C=CC(=O)OCCCOc1ccc(C(=O)Oc2ccc(OCCCOC(=O)C=C)cc2/C=N/Nc2nc3ccccc3s2)cc1 [1-e-69] | A (Re(450)/Re(550)≤0.85) |
| C=CC(=O)OCCCCCCOc1ccc(C(=O)Oc2ccc(OCCCCCCOC(=O)C=C)cc2/C=N/Nc2nc3ccccc3s2)cc1 [1-e-70] | A (Re(450)/Re(550)≤0.85) |
| C=CC(=O)OCCCCCCOc1ccc(C(=O)Oc2ccc3cc(OCCCCCCOC(=O)C=C)ccc3c2/C=N/Nc2nc3ccccc3s2)cc1 [1-e-73] | A (Re(450)/Re(550)≤0.85) |
| C=CC(=O)OCCCCOC1CCC(C(=O)Oc2ccc(OC(=O)C3CCC(OCCCCOC(=O)C=C)CC3)c(/C=N/Nc3nc4ccccc4s3)c2)CC1 (centres unmarked) [1-f-18] | A (Re(450)/Re(550)≤0.85) |
| C=CC(=O)OCCCCCCOC1CCC(C(=O)Oc2ccc(OC(=O)C3CCC(OCCCCCCOC(=O)C=C)CC3)c(/C=N/Nc3nc4ccccc4s3)c2)CC1 (centres unmarked) [1-f-19] | A (Re(450)/Re(550)≤0.85) |
| C=CC(=O)OCCCCOC(=O)C1CCC(C(=O)OC2CCC(C(=O)Oc3ccc(OC(=O)C4CCC(OC(=O)C5CCC(C(=O)OCCCCOC(=O)C=C)CC5)CC4)c(/C=N/Nc4nc5ccccc5s4)c3)CC2)CC1 (centres unmarked) [1-f-20] | A (Re(450)/Re(550)≤0.85) |
| C=CC(=O)OCCCCCCOC1CCC(C(=O)Oc2ccc(OC(=O)C3CCC(OCCCCCCOC(=O)C=C)CC3)c(/C=N/N(c3ccccc3)c3ccccc3)c2)CC1 (centres unmarked) [1-f-21] | A (Re(450)/Re(550)≤0.85) |
| C=CC(=O)OCCCCOC(=O)C1CCC(C(=O)OC2CCC(C(=O)Oc3ccc(OC(=O)C4CCC(OC(=O)C5CCC(C(=O)OCCCCOC(=O)C=C)CC5)CC4)c(/C=N/Nc4nc5ccc6ccccc6c5s4)c3)CC2)CC1 (centres unmarked) [1-f-22] | A (Re(450)/Re(550)≤0.85) |
| C=CC(=O)OCCCCOC(=O)C1CCC(OC(=O)C2CCC(C(=O)Oc3ccc(OC(=O)C4CCC(C(=O)OC5CCC(C(=O)OCCCCOC(=O)C=C)CC5)CC4)c(/C=N/Nc4nc5ccccc5s4)c3)CC2)CC1 (centres unmarked) [1-f-95] | A (Re(450)/Re(550)≤0.85) |
| C=CC(=O)OCCCCOC(=O)C1CCC(C(=O)OC2CCC(C(=O)Oc3ccc(OC(=O)C4CCC(OC(=O)C5CCC(C(=O)OCCCCOC(=O)C=C)CC5)CC4)c(/C=N/N(CCCCCC)c4nc5ccccc5s4)c3)CC2)CC1 (centres unmarked) [1-f-97] | A (Re(450)/Re(550)≤0.85) |
| C=CC(=O)OCCCCOC(=O)C1CCC(C(=O)OC2CCC(C(=O)Oc3ccc(OC(=O)C4CCC(OC(=O)C5CCC(C(=O)OCCCCOC(=O)C=C)CC5)CC4)c(/C=N/N(CCCCC)c4nc5ccccc5s4)c3)CC2)CC1 (centres unmarked) [1-f-98] | A (Re(450)/Re(550)≤0.85) |
| C=CC(=O)OCCCCOC(=O)C1CCC(C(=O)OC2CCC(C(=O)Oc3ccc(OC(=O)C4CCC(OC(=O)C5CCC(C(=O)OCCCCOC(=O)C=C)CC5)CC4)c(/C=N/N(CCCC)c4nc5ccccc5s4)c3)CC2)CC1 (centres unmarked) [1-f-99] | A (Re(450)/Re(550)≤0.85) |
| C=CC(=O)OCCCCOC(=O)C1CCC(C(=O)OC2CCC(C(=O)Oc3ccc(OC(=O)C4CCC(OC(=O)C5CCC(C(=O)OCCCCOC(=O)C=C)CC5)CC4)c(/C=N/N(CCC)c4nc5ccccc5s4)c3)CC2)CC1 (centres unmarked) [1-f-100] | A (Re(450)/Re(550)≤0.85) |
| C=CC(=O)OCCCCOC(=O)C1CCC(C(=O)OC2CCC(C(=O)Oc3ccc(OC(=O)C4CCC(OC(=O)C5CCC(C(=O)OCCCCOC(=O)C=C)CC5)CC4)c(/C=N/N(CC)c4nc5ccccc5s4)c3)CC2)CC1 (centres unmarked) [1-f-102] | A (Re(450)/Re(550)≤0.85) |
| C=CC(=O)OCCCCOC(=O)C1CCC(C(=O)OC2CCC(C(=O)Oc3ccc(OC(=O)C4CCC(OC(=O)C5CCC(C(=O)OCCCCOC(=O)C=C)CC5)CC4)c(/C=N/N(C)c4nc5ccccc5s4)c3)CC2)CC1 (centres unmarked) [1-f-103] | A (Re(450)/Re(550)≤0.85) |
| C=CC(=O)Oc1ccc(C(=O)Oc2ccc(OC(=O)c3ccc(OC(=O)C=C)cc3)c(/C=N/Nc3nc4ccccc4s3)c2)cc1 [1-g-35] | B (0.85<Re(450)/Re(550)≤0.95) |
| C=CC(=O)OCCCOC(=O)/C=C/c1ccc(C(=O)Oc2ccc(OC(=O)c3ccc(/C=C/C(=O)OCCCOC(=O)C=C)cc3OC)c(/C=N/Nc3nc4ccccc4s3)c2)c(OC)c1 [1-j-57] | A (Re(450)/Re(550)≤0.85) |

Reference: patent publication US10633353B2, “Polymerizable compound, composition, polymer, optically anisotropic body, liquid crystal display element, and organic EL display” (DIC Corporation, priority 2014, dated 2020)
